According to patent US9439884B2, “Methods for the treatment of immune disorders” (Beth Israel Deaconess Medical Center, Inc., priority 2011, dated 2016):
At least one structure is not confirmed: it was looked up by name or label, or the drawing left a doubt. Where a SMILES comes first, the peptide text is derived from it. [ ]: non-standard residue; d: D form. pS = N[C@@H](COP(=O)(O)O)C(=O)O

By UniProt entry, the sequences of proteins in these tests, tags left out. Residues count along the entry.
UniProt Q13526, 5-39 limits assumed: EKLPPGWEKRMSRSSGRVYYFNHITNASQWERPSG

Molecular target: T1, Pin1 WW domain (Homo sapiens, UniProt Q13526)
T1 construct: monitor the changes in the ^15N-WW domain induced by titration with phosphopeptide ligands
Test: 2D NMR (15N-1H HSQC) titration of 15N-WW domain with IRAK1 phosphopeptides
Assay type: binding
Conditions: chemical shift change of 15N-WW domain as a function of peptide concentration; read-out: dissociation constants (KD)
Source text: To measure the Pin1 interaction with each of the implicated pSer-Pro motifs in IRAK1, we employed two-dimensional (2D) NMR spectroscopy to monitor the changes in the ^15N-WW domain induced by titration with phosphopeptide ligands. In a 2d ^15N-^1H HSQC spectrum of a protein (FIG. 3a), each backbone NH group is represented by a peak, whose position reflects the chemical environment of that NH bond. Ligand binding to the protein is detected by changes in peak positions (fast exchange) or by the appearance of new peaks (slow exchange) as ligand is added. WW binding at each distinct IRAK1 site was measured using phosphopeptides containing residues 126-136 (pSer131-P132), 140-150 ([…]), and 157-180 (pSer173-P174) of IRAK1.

## CC(C)C[C@H](NC(=O)[C@H](Cc1ccccc1)NC(=O)[C@@H](NC(=O)[C@@H](N)CO)[C@@H](C)O)C(=O)N[C@@H](COP(=O)(O)O)C(=O)N1CCC[C@H]1C(=O)N[C@@H](C)C(=O)N[C@@H](Cc1ccccc1)C(=O)N1CCC[C@H]1C(=O)NCC(=O)N[C@@H](CO)C(=O)O [140-150 (pSer131-P132)] (H-STFL[pS]PAFPGS-OH; N-terminus and C-terminus assumed)
  Kd: 120 ± 12 µM
